Laboratory results reported in patent publication US20060241301A1, “Urea derivatives and their use as tyrosinkinase inhibitors” (priority 2003, published 2006).
For at least one compound, name, drawing or mass did not settle the structure.

Target: RAF
Experiment: RAF kinase inhibition
Type: biochemical

With `CNC(=O)c1cc(Oc2ccc(NC(=O)Nc3cc(C(F)(F)F)ccc3F)cc2)ccn1` [No. 2, N-methyl-4-{4-[3-(fluorotrifluoromethylphenyl)ureido]phenoxy}pyridine-2-carboxamide] the IC50 was 227 nM.
